The source of these data is PubChem BioAssay AID2685 (National Center for Advancing Translational Sciences (NCATS), 2010).

The nature of this experiment: qHTS Assay for Lipid Storage Modulators in Drosophila S3 Cells.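 For cell number change: cells counted by Cell Tracker Red CMTPX staining in the red channel.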 As to conditions: BODIPY lipid droplet fluorescence, 18-24 h; for cell number change: measured here: cell count max response, cells fed with added oleic acid. Summed up:
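Drosophila S3 cells loaded with oleic acid (400 uM, as added) and compounds at several concentrations; lipid droplets imaged by 488-nm laser-scanning cytometry, 500–530 nm intensity and object ratio to cell channel. Percent activity normalized to 20 uM Triacsin C.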

The mark [1] stands for this setting: measured here: lipid fluorescence (Fed channel) AC50, cells fed with added oleic acid.
The mark [2] stands for this setting: measured here: cell number channel AC50, cells fed with added oleic acid.

As a reminder, the AC50 is the concentration giving half of the maximal activity seen. A lower AC50 goes with activity at low concentration.

This is one part of the list. Shown are side measurements of this screen, not its main read-out; they come without a call. Most of these compounds were active or inconclusive in the main read-out, so they are no random draw. Potencies come from curve fits of mixed quality, noted in brackets.

For `N#Cc1nc(-c2ccco2)oc1N1CCCC1`, the cell number change was found to be 17.9%. Under setting [1], the AC50 was 6.51 µM [falling, single point].
As for `O=C(CNC(=O)c1cccc(F)c1)OCc1cc(=O)n2cc(Br)ccc2n1`, the cell number change is -34.8%. Moreover, the AC50 under setting [2] was 2.91 µM [falling, partial curve]. For the same compound, under setting [1], the AC50 is 6.51 µM [rising, single point].
Consider `COCC(C)n1c(C)cc(C(=O)COc2ccc(N(C)S(=O)(=O)c3ccc(NC(C)=O)cc3)cc2)c1C` (stereo not drawn), for which the cell number change worked out at 42.8%. For the same compound, the AC50 under setting [2] is 7.31 µM [rising, partial curve].
Regarding `O=C(NCCN1CCOCC1)C1CCC(=O)N1Cc1ccc(F)cc1` (stereo not drawn), the cell number change was -9.91%. Moreover, the half-maximal activity concentration (AC50) under setting [2] was 0.82 µM [falling, full curve, poor fit]. Further, the AC50 under setting [1] is 29.1 µM [falling, partial curve].
For `Cn1cc(/C=N\NC(=O)C2COc3ccccc3O2)c2ccccc21` (stereo not drawn), the cell number change was -14.4%.
Regarding `Cc1ccccc1N(C(=O)CCCC(=O)Nc1ccccn1)C(C(=O)NC1CCCC1)c1ccc(O)cc1` (stereo not drawn), the cell number change came to 3.78%. Also, the AC50 under setting [1] was 0.231 µM [rising, full curve, poor fit].
Consider `CCCCOc1ccc(CSC(=N)N)cc1Cl`, for which the cell number change is -43%. Further, the AC50 under setting [2] is 9.2 µM [falling, partial curve, poor fit].
For the compound `O=C(NC1CCOCC1)C1CCC(=O)N(Cc2cccc(C(F)(F)F)c2)C1` (stereo not drawn), the AC50 under setting [1] is 6.51 µM [falling, single point].
As to `COC(=O)c1ccccc1NC(=O)c1cc(OC)cc(OC)c1`, the cell number change amounted to 127%. Besides, under setting [2], the AC50 is 3.66 µM [rising, full curve].
`CSc1ccc(/C=N/NC(=O)CNc2ccc3ccccc3c2)cc1`: the cell number change is -19.5%. Also, under setting [1], the AC50 was 18.4 µM [falling, single point].
With `Cc1cccc(OCC(=O)N2CCC3(CC2)CC(=O)c2ccccc2O3)c1`, the cell number change was 3.23%.
For `COC(=O)c1ccc(NC(=O)CCN2CCOCC2)cc1`, the cell number change was -0.265%. The AC50 under setting [1] was 5.17 µM [rising, full curve].
Turning to `Clc1ccc2[nH]c3c(N4CCC5(CC4)OCCO5)ncnc3c2c1`, the cell number change is -16.9%. The AC50 under setting [1] was 5.17 µM [falling, full curve].
In the case of `CC12CCC(=O)N1C(C(=O)Nc1nc3ccccc3s1)CS2` (stereo not drawn), the cell number change was -17.5%. In addition, the AC50 under setting [1] is 32.6 µM [falling, single point].
As to `O=C(CCN1CCOCC1)N/N=C/c1cc([N+](=O)[O-])ccc1OC(F)F`, the cell number change was 13.3%. In addition, under setting [2], the AC50 is 6.51 µM [falling, single point]. Also, under setting [1], the AC50 was 6.51 µM [falling, single point].
Take `CCc1cc(=O)oc2cc(C)cc(OCC(=O)NCCc3c[nH]c4ccccc34)c12`: the cell number change is -0.872%. Moreover, under setting [1], the AC50 was 29.1 µM [falling, single point].
For the compound `Cc1cc(=O)oc2cc(O[C@@H]3O[C@H](CO)[C@@H](O)[C@H](O)[C@H]3O)ccc12`, the cell number change was determined as 38.9%. Under setting [2], the AC50 is 5.17 µM [rising, partial curve, poor fit]. Further, the AC50 under setting [1] was 1.64 µM [falling, partial curve, poor fit].
As for `CNc1snc(C)c1C(=O)OCC(=O)N(C)c1ccccc1`, the cell number change is -20.5%. The AC50 under setting [1] was 6.51 µM [falling, full curve, poor fit].
Take `CCOc1cc(S(=O)(=O)NC2CC2)c(OCC)cc1-n1cnnn1`: the cell number change turned out to be 73.8%. For the same compound, the AC50 under setting [2] is 7.31 µM [rising, partial curve].
Regarding `COc1ccc(C2(c3ccc(OC)cc3)NC(=O)N(CC(=O)NC3(C#N)CCCCC3)C2=O)cc1`, the cell number change was -25.2%. In addition, the AC50 under setting [2] was 0.651 µM [falling, full curve, poor fit]. The AC50 under setting [1] is 6.51 µM [falling, single point].
`CC(=O)NCCc1nc2ccccc2n1Cc1ccc(C)cc1`: the cell number change was -19.7%. Also, under setting [1], the AC50 was 32.6 µM [falling, single point].
As for `COc1cccc(NC(=O)CSc2ccc3nnc(-c4cccnc4)n3n2)c1`, the cell number change is -23.4%. Further, the AC50 under setting [1] was 35.5 µM [falling, single point].
In the case of `COc1ccc(N2CCN(C(=O)CSc3ccccc3N)CC2)cc1`, the cell number change came out at 7.48%. The AC50 under setting [1] is 4.11 µM [rising, full curve, poor fit].
With `O=C(O)c1nccnc1C(=O)N1CCN(c2ccccc2)CC1`, the cell number change was -5.23%. Further, the concentration at half-maximal activity (AC50) under setting [1] was 29.1 µM [rising, single point].
Regarding `Cc1ccc(C)c(NS(=O)(=O)c2ccc(OCC(=O)NCC3CCCO3)cc2)c1` (stereo not drawn), the cell number change was -15.7%. Moreover, the AC50 under setting [1] is 4.61 µM [rising, partial curve, poor fit].
`CCN(C(=O)CSc1ncnc2c1cnn2-c1ccccc1)C1CCS(=O)(=O)C1` (stereo not drawn): the cell number change was -17.6%. Under setting [1], the AC50 is 0.92 µM [falling, partial curve].
For `COc1ccc(N(C)C(=O)c2cc3c(s2)-c2ccccc2S(=O)(=O)C3)cc1`, the cell number change came to 47.4%. For the same compound, the AC50 under setting [2] was 7.31 µM [rising, partial curve]. In addition, the AC50 under setting [1] is 9.2 µM [rising, partial curve].
Take `Cc1cc([N+](=O)[O-])ccc1N=Nc1c(N)[nH]n(-c2ccccc2)c1=O`: the AC50 runs as follows: under setting [2], 3.26 µM [rising, partial curve]; under setting [1], 1.64 µM [rising, partial curve].
On to `CC(=O)Nc1ccc(OCC(=O)NCc2ccc3c(c2)OCO3)cc1`, for which the cell number change is -18.3%.
Take `COc1ccc(Cc2nc(-c3ccc(Br)cc3)no2)cc1`: the AC50 under setting [2] was 2.31 µM [rising, single point].
`CC(=O)Nc1ccc(N2C(=O)C3C4C=CC(CC4)C3C2=O)cc1` (stereo not drawn): the cell number change was found to be 9.91%.
Regarding `COC(=O)[C@]1(C)N[C@H](c2ccc(-c3ccc(Cl)c(Cl)c3)cc2)[C@@H]2C(=O)N(C)C(=O)[C@@H]21`, the cell number change is -41.4%. The AC50 under setting [2] is 16.4 µM [falling, single point].
Turning to `CCC1(C)Cc2ccccc2C(=O)N1` (stereo not drawn), the cell number change came out at 12.9%.
Turning to `COc1cccc(NC(=O)c2cc3ccccc3o/c2=N\O)c1`, the cell number change is -40.1%. Also, the AC50 under setting [2] is 4.61 µM [falling, partial curve]. The AC50 under setting [1] is 5.8 µM [falling, single point].
For the compound `O=C(O)Cc1ccc(-c2ccccc2-c2ccccc2)cc1`, the cell number change is 5.59%. In addition, the AC50 under setting [1] was 0.517 µM [rising, partial curve, poor fit].
As for `CC(C)(C)NCC(O)c1cc(O)cc(O)c1` (stereo not drawn), the cell number change is 29%. For the same compound, under setting [2], the AC50 was 0.092 µM [rising, full curve, poor fit]. Further, the AC50 under setting [1] was 0.116 µM [rising, full curve, poor fit].
Consider `CC(C)(C)C(O)CN1CCCC1` (stereo not drawn), for which the cell number change worked out at 27.1%. Also, the AC50 under setting [1] is 0.206 µM [rising, full curve].
For `O=C1Nc2ccccc2C12OCC(COc1ccc(Cl)cc1)O2` (stereo not drawn), the cell number change was -57.5%. In addition, under setting [2], the AC50 was 32.6 µM [falling, partial curve].
On to `CCOc1ccc(/C=C(\C)C(=O)c2c(C)cc(C)[nH]c2=O)cc1`, for which the cell number change is 30.1%. For the same compound, the AC50 under setting [2] is 0.00461 µM [rising, full curve, poor fit]. Besides, under setting [1], the AC50 is 29.1 µM [rising, single point].
On to `Cc1cccc(C)c1OCC(=O)Nc1ccc2c(c1)OCCO2`, for which the cell number change is -4.32%. In addition, the AC50 under setting [1] was 3.66 µM [falling, full curve].
Take `Cc1ccccc1Nc1nc(N)nc(CN2CCN(C(=O)c3ccccc3)CC2)n1`: under setting [2], the AC50 is 4.11 µM [rising, single point].
Consider `O=C(NCc1ccco1)/C(=C/c1ccc(Cl)cc1)NC(=O)c1ccco1`, for which the cell number change was -22.9%. In addition, under setting [2], the AC50 was 2.06 µM [rising, partial curve, poor fit].
Turning to `CSc1ccc(C2C(C#N)=C(N)N(c3ccccc3)C3=C2C(=O)CCC3)cc1` (stereo not drawn), the cell number change came to 4.7%. Further, the half-maximal activity concentration (AC50) under setting [1] was 0.82 µM [rising, full curve].
Regarding `COc1ccc(Cl)cc1C(=O)OCC(=O)N(CC(C)C)c1c(N)n(Cc2ccccc2)c(=O)[nH]c1=O`, the cell number change was 16.6%. For the same compound, the AC50 under setting [1] is 2.31 µM [rising, partial curve, poor fit].
In the case of `Cc1oc2ncnc(N)c2c1C`, the cell number change is -4.97%.
In the case of `N#CC(C(=O)NCc1ccco1)c1nc2ccccc2nc1N1CCOCC1` (stereo not drawn), the cell number change was -9.79%. Under setting [1], the AC50 was 4.61 µM [rising, full curve].
Regarding `Cc1cc(C(=O)Nc2sc(C)c(-c3ccc(F)cc3)c2C(N)=O)no1`, the cell number change stood at 15.5%. Besides, under setting [1], the AC50 is 4.11 µM [rising, partial curve, poor fit].
For `COc1ccc(C(=O)N2CCN(CCNC(=O)C(=O)Nc3ccc(Br)cc3)CC2)cc1`, the cell number change came to 7.43%. The AC50 under setting [2] is 3.66 µM [rising, single point]. The AC50 under setting [1] was 29.1 µM [rising, single point].
For `CCC(CO)Nc1ncnc2c1cnn2-c1ccc(OC)cc1` (stereo not drawn), the cell number change was -9.93%. In addition, the AC50 under setting [1] is 18.4 µM [falling, single point].
Take `Cc1ccc2c(c1)[C@H]1[C@H](CO2)[C@H](c2ccccc2)[C@]2(C)C(=O)NCC(=O)N12`: the cell number change came out at 17.4%. Besides, the AC50 under setting [1] was 0.517 µM [rising, partial curve].
Regarding `Cc1ccc(NC(=O)CN2CCCCCC2)cc1Br`, under setting [1], the AC50 is 0.58 µM [falling, single point].
In the case of `Cc1ccccc1OCC(=O)N/N=C/c1ccc(Sc2nc3ccccc3s2)o1`, the AC50 under setting [2] is 5.17 µM [rising, partial curve] and the AC50 under setting [1] is 3.26 µM [rising, partial curve].
In the case of `CC(C)(C)c1csc(NC(=O)c2ccc(Cl)s2)n1`, the cell number change was -38.4%. Moreover, the AC50 under setting [2] was 4.61 µM [falling, single point]. Moreover, under setting [1], the AC50 is 29.1 µM [falling, single point].
For `N#Cc1ccccc1OCC(=O)OCC(=O)NCc1ccc2c(c1)OCO2`, the cell number change is 29.5%. For the same compound, the AC50 under setting [2] is 2.91 µM [rising, full curve, poor fit]. The AC50 under setting [1] is 5.17 µM [rising, partial curve, poor fit].
On to `Cc1cc(C)n(Cc2ccc(C(=O)NCc3ccco3)o2)n1`, for which the cell number change is 54.8%. In addition, the AC50 under setting [2] was 3.26 µM [rising, full curve, poor fit]. Further, the AC50 under setting [1] is 9.2 µM [rising, partial curve].
On to `COc1ccc(CN2C(=O)c3cccnc3C2=O)cc1S(=O)(=O)NCc1ccccc1`, for which the cell number change was -16.4%. In addition, the AC50 under setting [1] was 6.51 µM [falling, single point].
On to `O=C(Nc1ccccc1N1CCCC1)c1ccc2c(c1)OCO2`, for which the cell number change was 58.3%. The AC50 under setting [2] is 1.46 µM [rising, partial curve]. The AC50 under setting [1] was 0.58 µM [rising, single point].
